Patent US20110190165A1, “HIGH THROUGHPUT METHODS OF IDENTIFYING NEUTRAL LIPID SYNTHASES” (priority 2008, published 2011)
At least one compound was matched to its structure with a doubt left.

Test system: quadruple knock-out strain cultures harboring vector with either DGAT1 or LacZ gene
Experiment: Growth of quadruple knock-out yeast expressing DGAT1 or LacZ on solid medium supplemented with fatty acids
Format: cell-based, Saccharomyces cerevisiae
Experimental: (A) Plates of YNBG with and without supplement of 1 mM of oleic acid (C18:1) dissolved in ethanol. The plate without FA contained the same volume of ethanol only. (B) Plates of YNBG supplemented with 1 mM of palmitoleic (16:1^cisΔ9), linoleic (18:2^cisΔ9,12), α-linolenic (C18:3), docosahexaenoic (C22:6), ricinoleic (C18:1 OH), erucic (C22:1) and 0.5 mM of palmitic (C16:0) and stearic (C18:0) acids. The FAs were dissolved in ethanol at 0.5M or 0.25M and added to the YNBG prior to plating. (C) Plates supplemented with oleic, α-linolenic and docosahexaenoic acids at the final concentrations indicated. (D) Selection of yeast cells in medium with FA after transformation. H1246 cells were transformed with 1 μg of pYESBnDGAT1 (column 1), 1 μg of pYESLacZ (column 2) and 0.1 μg of pYESBnDGAT1 mixed with 0.9 μg of pYESLacZ (column 3). After transformation, yeast cells were recovered in liquid YNBD medium for 6 hours, inoculated in YNBG plates with or without supplement of 1 mM oleic acid and incubated at 30° C. for 6 days.

Structure (SMILES): CC/C=C\C/C=C\C/C=C\C/C=C\C/C=C\C/C=C\CCC(=O)O [docosahexaenoic, docosahexaenoic acid]
- suitability for selection (0.5 mM (500 μM) fatty acid): suitable for selection
- growth of DGAT1 and LacZ cultures (1 mM fatty acid): inhibited the growth of both cultures
